Source: patent publication US20160120186A1, “ENHANCEMENT AND CONTROL OF SEED GERMINATION WITH COMPOSITIONS COMPRISING A TRANSITION METAL CATALYST AND AN OXIDANT” (UNIVERSITY OF SASKATCHEWAN, priority 2013, published 2016)

Assay: Dissolved oxygen release by catalytic medium
Settings: FIG. 3C; 10 mg catalyst in citrate-buffered water pH 3.8 with 0.35% v/v hydrogen peroxide

Row | SMILES | production of oxygen in the reaction medium
1 | O=S(=O)([O-])[O-].[Fe+2] [FeSO4] | catalysed the production of oxygen
2 | O=S(=O)([O-])[O-].[Cu+2] [CuSO4] | catalysed the production of oxygen
